Results deposited as PubChem BioAssay AID1159578 (Peter MacCallum Cancer Centre, 2015).

Aim: 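siRNA pools altering how lymphatic endothelial cells close a scratch wound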 (primary screen)
Cell system: human lymphatic endothelial cells
Reagents: siRNA pool against human genes, 40 nM
Timing: 48 h after transfection
Read-out: 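High-content imaging of dye-stained cells in a scratch assay measures filled wound area and nuclei per well; duplicate means given as ratio to mock and robust z-score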
Reading the numbers: migration robust z-score: higher = faster migration into the scratch; migration relative to mock: higher = more scratch area covered than mock; nuclei per well: higher = more cells in the well
Hit rule: 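Migration changed when robust z exceeds 2 or falls below -2 and mean nuclei number is at least 3300; otherwise not called changed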
Meaning of the calls: active = migration changed; inactive = no migration change, or too few cells
Shown is an unselected part of about 18,000 deposited reagents. Of all reagents, about 1,030 (5.7%) are marked active. 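Inactive calls also include pools with fewer than 3300 nuclei, whose migration was not assessed.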 The raw values are shown without normalisation. Entries without a mark were called inactive.

gene symbol | migration robust z-score | migration class with cell-count check | migration relative to mock | nuclei per well, duplicate mean
PPIB (peptidylprolyl isomerase B) | 0.08 | migration z between -2 and 2; enough cells | 0.82 | 4561
GSX1 (GS homeobox 1) | -0.9 | migration z between -2 and 2; enough cells | 0.65 | 6036
FANCM (FA complementation group M) | -1.35 | migration z between -2 and 2; enough cells | 0.54 | 4990
SNRNP40 (small nuclear ribonucleoprotein U5 subunit 40) | 1.09 | migration z between -2 and 2; enough cells | 1.17 | 6646
H3C8 (H3 clustered histone 8) | -0.99 | migration z between -2 and 2; enough cells | 0.63 | 5530
WASHC2C (WASH complex subunit 2C) | 0.46 | migration z between -2 and 2; enough cells | 1 | 5572
PNCK (pregnancy up-regulated nonubiquitous CaM kinase) | -1.4 | migration z between -2 and 2; enough cells | 0.54 | 4027
TSPAN16 (tetraspanin 16) | -0.55 | migration z between -2 and 2; enough cells | 0.74 | 5496
HNRNPK (heterogeneous nuclear ribonucleoprotein K) | -0.02 | migration z between -2 and 2; enough cells | 0.88 | 5705
PCK1 (phosphoenolpyruvate carboxykinase 1) | -1.22 | migration z between -2 and 2; enough cells | 0.57 | 4108
C2orf78 (chromosome 2 open reading frame 78) | 0.38 | migration z between -2 and 2; enough cells | 0.98 | 6968
IP6K3 (inositol hexakisphosphate kinase 3) | -2.34 (active) | migration z below -2; enough cells | 0.36 | 4488
GKAP1 (G kinase anchoring protein 1) | -0.83 | migration z between -2 and 2; enough cells | 0.67 | 7550
LTBP2 (latent transforming growth factor beta binding protein 2) | -0.57 | migration z between -2 and 2; enough cells | 0.74 | 4670
CDC14A (cell division cycle 14A) | -1.43 | migration z between -2 and 2; enough cells | 0.53 | 4725
TM9SF4 (transmembrane 9 superfamily member 4) | -0.72 | migration z between -2 and 2; enough cells | 0.7 | 5476
SLIRP-OT1 (SLIRP overlapping transcript 1) | -0.63 | migration z between -2 and 2; enough cells | 0.72 | 4925
RPL23 (ribosomal protein L23) | -0.3 | migration z between -2 and 2; enough cells | 0.8 | 4465
OR2B11 (olfactory receptor family 2 subfamily B member 11) | -2.05 (active) | migration z below -2; enough cells | 0.35 | 5022
MRPS18A (mitochondrial ribosomal protein S18A) | 0.18 | migration z between -2 and 2; enough cells | 0.93 | 4338
KIRREL1 (kirre like nephrin family adhesion molecule 1) | -0.05 | migration z between -2 and 2; enough cells | 0.87 | 6732
SEPTIN14 (septin 14) | -0.06 | migration z between -2 and 2; enough cells | 0.87 | 5944
OR2D3 (olfactory receptor family 2 subfamily D member 3) | 1.92 | migration z between -2 and 2; enough cells | 1.38 | 5730
SERPING1 (serpin family G member 1) | 0.42 | migration z between -2 and 2; enough cells | 0.88 | 4894
CSTF1 (cleavage stimulation factor subunit 1) | 0.76 | migration z between -2 and 2; enough cells | 1.08 | 5945
NEB (nebulin) | 0.48 | migration z between -2 and 2; enough cells | 1.01 | 5462
OR8D1 (olfactory receptor family 8 subfamily D member 1) | -1.48 | migration z between -2 and 2; enough cells | 0.5 | 5824
CWH43 (cell wall biogenesis 43 C-terminal homolog) | -1.21 | migration z between -2 and 2; enough cells | 0.57 | 5222
MED26 (mediator complex subunit 26) | 0.16 | migration z between -2 and 2; enough cells | 0.84 | 5250
ZNF524 (zinc finger protein 524) | -0.79 | migration z between -2 and 2; enough cells | 0.68 | 4172
MTMR3 (myotubularin related protein 3) | -0.78 | migration z between -2 and 2; enough cells | 0.66 | 5816
JPH4 (junctophilin 4) | -0.36 | migration z between -2 and 2; enough cells | 0.8 | 5395
EDN1 (endothelin 1) | 1.79 | migration z between -2 and 2; enough cells | 1.34 | 5612
SUOX (sulfite oxidase) | -1.6 | migration z between -2 and 2; enough cells | 0.5 | 4600
ZNF426 (zinc finger protein 426) | 1.31 | migration z between -2 and 2; enough cells | 1.23 | 6772
NRXN3 (neurexin 3) | 1.2 | migration z between -2 and 2; enough cells | 1.19 | 7156
CNIH4 (cornichon family member 4) | 0.33 | migration z between -2 and 2; enough cells | 0.97 | 6275
C1QTNF7 (C1q and TNF related 7) | -0.78 | migration z between -2 and 2; enough cells | 0.68 | 4664
OR4K14 (olfactory receptor family 4 subfamily K member 14) | -1.09 | migration z between -2 and 2; enough cells | 0.6 | 5496
ARHGEF4 (Rho guanine nucleotide exchange factor 4) | -1.89 | migration z between -2 and 2; enough cells | 0.4 | 4035
EXOC1 (exocyst complex component 1) | -1.31 | migration z between -2 and 2; enough cells | 0.55 | 5304

Single entries from the list:
Result of CNIH4 (cornichon family member 4) under “migration relative to mock”: 0.97
NRXN3 (neurexin 3), migration relative to mock: 1.19
For “migration relative to mock”, OR8D1 (olfactory receptor family 8 subfamily D member 1) reads 0.5
ARHGEF4 (Rho guanine nucleotide exchange factor 4), nuclei per well, duplicate mean → 4035
For “nuclei per well, duplicate mean”, KIRREL1 (kirre like nephrin family adhesion molecule 1) has 6732
For “migration class with cell-count check”, SERPING1 (serpin family G member 1) has migration z between -2 and 2; enough cells

The results go on.
gene symbol | migration robust z-score | migration class with cell-count check | migration relative to mock | nuclei per well, duplicate mean
TMEM74B (transmembrane protein 74B) | 0.35 | migration z between -2 and 2; enough cells | 0.98 | 5330
ATP6V1D (ATPase H+ transporting V1 subunit D) | -1.27 | migration z between -2 and 2; enough cells | 0.56 | 3804
TBKBP1 (TBK1 binding protein 1) | -1.16 | migration z between -2 and 2; enough cells | 0.58 | 6034
GNB1L (G protein subunit beta 1 like) | -0.62 | migration z between -2 and 2; enough cells | 0.72 | 5804
LEMD2 (LEM domain nuclear envelope protein 2) | -0.08 | migration z between -2 and 2; enough cells | 0.86 | 6317
KARS1 (lysyl-tRNA synthetase 1) | -0.57 | migration z between -2 and 2; enough cells | 0.7 | 5895
SEPSECS | 0.25 | migration z between -2 and 2; enough cells | 0.95 | 6510
LYPD5 (LY6/PLAUR domain containing 5) | -1.9 | migration z between -2 and 2; enough cells | 0.4 | 6648
HS2ST1 (heparan sulfate 2-O-sulfotransferase 1) | -0.08 | migration z between -2 and 2; enough cells | 0.79 | 5390
SMYD2 (SET and MYND domain containing 2) | -1.06 | migration z between -2 and 2; enough cells | 0.6 | 6669
DNM2 (dynamin 2) | -0.03 | migration z between -2 and 2; enough cells | 0.88 | 7432
ECSCR | 0.1 | migration z between -2 and 2; enough cells | 0.91 | 6116
CXCL10 (C-X-C motif chemokine ligand 10) | 0.88 | migration z between -2 and 2; enough cells | 1.12 | 5449
CHD1 (chromodomain helicase DNA binding protein 1) | -0.16 | migration z between -2 and 2; enough cells | 0.77 | 6239
GNAS (GNAS complex locus) | -2.77 (active) | migration z below -2; enough cells | 0.27 | 4392
CYP2W1 (cytochrome P450 family 2 subfamily W member 1) | -0.24 | migration z between -2 and 2; enough cells | 0.76 | 5743
PI4K2A (phosphatidylinositol 4-kinase type 2 alpha) | -2.54 (active) | migration z below -2; enough cells | 0.32 | 4556
DEPP1 (DEPP autophagy regulator 1) | -1.18 | migration z between -2 and 2; enough cells | 0.57 | 6396
MRPL41 (mitochondrial ribosomal protein L41) | -0.97 | migration z between -2 and 2; enough cells | 0.64 | 5596
STON1 (stonin 1) | 0.19 | migration z between -2 and 2; enough cells | 0.94 | 6230
CX3CL1 (C-X3-C motif chemokine ligand 1) | -0.08 | migration z between -2 and 2; enough cells | 0.86 | 7534
PLTP (phospholipid transfer protein) | 0.16 | migration z between -2 and 2; enough cells | 0.84 | 5264
LUC7L3 (LUC7 like 3 pre-mRNA splicing factor) | -1.36 | migration z between -2 and 2; enough cells | 0.53 | 5916
SPRR2F (small proline rich protein 2F) | -1.41 | migration z between -2 and 2; enough cells | 0.52 | 5020
INCENP (inner centromere protein) | 0.46 | under 3300 nuclei; migration not judged | 1 | 2874
RTL5 (retrotransposon Gag like 5) | 1.5 | migration z between -2 and 2; enough cells | 1.27 | 6668
ATP8B4 (ATPase phospholipid transporting 8B4 (putative)) | -0.1 | migration z between -2 and 2; enough cells | 0.78 | 5684
CELA1 (chymotrypsin like elastase 1) | -1.3 | migration z between -2 and 2; enough cells | 0.55 | 5539
DELE1 (DAP3 binding cell death enhancer 1) | -0.02 | migration z between -2 and 2; enough cells | 0.88 | 5573
SUN2 (Sad1 and UNC84 domain containing 2) | 0.18 | migration z between -2 and 2; enough cells | 0.93 | 5659
DAZ2 (deleted in azoospermia 2) | 0.52 | migration z between -2 and 2; enough cells | 0.9 | 5463
ARRDC4 (arrestin domain containing 4) | 0.22 | migration z between -2 and 2; enough cells | 0.94 | 6482
